This is an account of results in publication doi:10.1101/2023.03.30.534706.

No constants are given. Whether binding was seen depends on the method and setting. Binding can be weak; no strength is given. Where a sequence is shown, tags or fusion partners need not be part of it.

The target in the test is T1, C. jejuni PpfC fused at the N-terminus to a Strep-tag (apo-PpfC-Strep) (C. jejuni NCTC 11168) (UniProt Q9PI08).
T1 sequence: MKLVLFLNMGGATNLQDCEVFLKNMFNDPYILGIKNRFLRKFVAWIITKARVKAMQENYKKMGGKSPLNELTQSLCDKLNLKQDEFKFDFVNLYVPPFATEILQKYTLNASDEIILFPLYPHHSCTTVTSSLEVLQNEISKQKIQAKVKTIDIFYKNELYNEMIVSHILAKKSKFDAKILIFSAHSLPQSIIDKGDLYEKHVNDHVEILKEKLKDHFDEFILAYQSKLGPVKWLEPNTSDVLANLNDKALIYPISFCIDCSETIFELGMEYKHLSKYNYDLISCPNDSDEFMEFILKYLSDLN
In words: pull-down.

Consider “C. jejuni CgdH2 linked at the C-terminus to a His-tag (apo-CgdH2-His) (from UniProt Q0PBE7)”, for which the binding result is reported as “binds”.
